Variants at the background level are over-represented here.
What was measured:
biotinyl-Leu-oxazolone = assay: self-aminoacylation, catalytic enhancement (BLO) (fold over background); higher = more active; k-Seq, kA / k0A0; sequences stand for … in GGGAAUGGAUCCACAUCUACGAAUUC…UUCACUGCAGACUUGACGAAGCUG
In short: (§1)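 Mutagenized RNA pools (0.43 μM; 21-nt variable region) were treated with 2–1250 μM of each biotinyl-aminoacyl-oxazolone. Conditions were 50 μL HEPES/NaCl/KCl/MgCl2/CaCl2 buffer, 5% acetonitrile, pH 6.9–7.0, room temperature, 90 minutes. Catalytic enhancement, the median kA relative to the uncatalyzed rate, was derived from streptavidin capture, qPCR and Illumina sequencing.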

biotinyl-Met-oxazolone = assay: self-aminoacylation, catalytic enhancement (BMO) (fold over background); higher = more active; k-Seq, kA / k0A0; sequences stand for … in GGGAAUGGAUCCACAUCUACGAAUUC…UUCACUGCAGACUUGACGAAGCUG
In short: as §1

biotinyl-Trp-oxazolone = assay: self-aminoacylation, catalytic enhancement (BWO) (fold over background); higher = more active; k-Seq, kA / k0A0; sequences stand for … in GGGAAUGGAUCCACAUCUACGAAUUC…UUCACUGCAGACUUGACGAAGCUG
In short: as §1

biotinyl-Ile-oxazolone = assay: self-aminoacylation, catalytic enhancement (BIO) (fold over background); higher = more active; k-Seq, kA / k0A0; sequences stand for … in GGGAAUGGAUCCACAUCUACGAAUUC…UUCACUGCAGACUUGACGAAGCUG
In short: as §1

biotinyl-Phe-oxazolone = assay: self-aminoacylation, catalytic enhancement (BFO) (fold over background); higher = more active; k-Seq, kA / k0A0; sequences stand for … in GGGAAUGGAUCCACAUCUACGAAUUC…UUCACUGCAGACUUGACGAAGCUG
In short: as §1

biotinyl-Val-oxazolone = assay: self-aminoacylation, catalytic enhancement (BVO) (fold over background); higher = more active; k-Seq, kA / k0A0; sequences stand for … in GGGAAUGGAUCCACAUCUACGAAUUC…UUCACUGCAGACUUGACGAAGCUG
In short: as §1

In the case of “CAACUUCAAACAAUUGGUCUG [Fam1A.1 aminoacylation ribozyme variant]”, the self-aminoacylation (biotinyl-Leu-oxazolone) is reported as 0.939, the self-aminoacylation (biotinyl-Met-oxazolone) is reported as 0.957 and the self-aminoacylation (biotinyl-Trp-oxazolone) is reported as 1.35. The self-aminoacylation (biotinyl-Ile-oxazolone) was 1.23, the self-aminoacylation (biotinyl-Phe-oxazolone) was 1.52 and the self-aminoacylation (biotinyl-Val-oxazolone) was 1.03.
With “CGACUUCCAACAAUCGGUCUG [Fam1A.1 aminoacylation ribozyme variant]” the self-aminoacylation (biotinyl-Leu-oxazolone) was 1.25, the self-aminoacylation (biotinyl-Met-oxazolone) was 0.998 and the self-aminoacylation (biotinyl-Trp-oxazolone) was 1.09. The self-aminoacylation (biotinyl-Ile-oxazolone) was 1.2, the self-aminoacylation (biotinyl-Phe-oxazolone) was 1.83 and the self-aminoacylation (biotinyl-Val-oxazolone) was 1.19.
For “CCACACUUCAAGUAAUCGAUC [Fam1B.1 aminoacylation ribozyme variant]”, the self-aminoacylation (biotinyl-Leu-oxazolone) was 0.444, the self-aminoacylation (biotinyl-Met-oxazolone) was 0.464 and the self-aminoacylation (biotinyl-Trp-oxazolone) was 0.837. For the same sequence, the self-aminoacylation (biotinyl-Ile-oxazolone) was 0.547, the self-aminoacylation (biotinyl-Phe-oxazolone) was 1.21 and the self-aminoacylation (biotinyl-Val-oxazolone) was 0.622.
For “CCGCACUUCAAGAAAUCGGUC [Fam1B.1 aminoacylation ribozyme variant]”, the self-aminoacylation (biotinyl-Leu-oxazolone) was 1.59, the self-aminoacylation (biotinyl-Met-oxazolone) was 1.14 and the self-aminoacylation (biotinyl-Trp-oxazolone) was 10.3. It also gave a self-aminoacylation (biotinyl-Ile-oxazolone) of 1.18, a self-aminoacylation (biotinyl-Phe-oxazolone) of 12.2 and a self-aminoacylation (biotinyl-Val-oxazolone) of 1.41.
For “AAGUUUGCUAUUAGUAGCAAG [Fam3.1 aminoacylation ribozyme variant]”, the self-aminoacylation (biotinyl-Leu-oxazolone) was 1.03, the self-aminoacylation (biotinyl-Met-oxazolone) was 1.31 and the self-aminoacylation (biotinyl-Trp-oxazolone) was 1.33. For the same sequence, the self-aminoacylation (biotinyl-Ile-oxazolone) was 0.955, the self-aminoacylation (biotinyl-Phe-oxazolone) was 1.24 and the self-aminoacylation (biotinyl-Val-oxazolone) was 1.21.
In the case of “CUACUUCAGACAAUCGGUCCG [Fam1A.1 aminoacylation ribozyme variant]”, the self-aminoacylation (biotinyl-Leu-oxazolone) is reported as 1.01, the self-aminoacylation (biotinyl-Met-oxazolone) is reported as 1 and the self-aminoacylation (biotinyl-Trp-oxazolone) is reported as 1.38. For the same sequence, the self-aminoacylation (biotinyl-Ile-oxazolone) was 0.811, the self-aminoacylation (biotinyl-Phe-oxazolone) was 0.81 and the self-aminoacylation (biotinyl-Val-oxazolone) was 0.695.
Sequence “CUACUUCAUAUAAUCGGUCUG [Fam1A.1 aminoacylation ribozyme variant]” has a self-aminoacylation (biotinyl-Leu-oxazolone) of 0.748, a self-aminoacylation (biotinyl-Met-oxazolone) of 0.791 and a self-aminoacylation (biotinyl-Trp-oxazolone) of 0.593. It also gave a self-aminoacylation (biotinyl-Ile-oxazolone) of 0.771, a self-aminoacylation (biotinyl-Phe-oxazolone) of 0.756 and a self-aminoacylation (biotinyl-Val-oxazolone) of 0.718.
Work on “AAGCUUGCUAAAAGUCGCAAG [Fam3.1 aminoacylation ribozyme variant]” yielded a self-aminoacylation (biotinyl-Leu-oxazolone) of 3.1, a self-aminoacylation (biotinyl-Met-oxazolone) of 3.31 and a self-aminoacylation (biotinyl-Trp-oxazolone) of 3.43. The self-aminoacylation (biotinyl-Ile-oxazolone) was 2.16, the self-aminoacylation (biotinyl-Phe-oxazolone) was 5.12 and the self-aminoacylation (biotinyl-Val-oxazolone) was 1.79.
With “CUACGCCAAACAAUCGGUCUG [Fam1A.1 aminoacylation ribozyme variant]” the self-aminoacylation (biotinyl-Leu-oxazolone) was 1.07, the self-aminoacylation (biotinyl-Met-oxazolone) was 0.88 and the self-aminoacylation (biotinyl-Trp-oxazolone) was 1.11. The self-aminoacylation (biotinyl-Ile-oxazolone) was 1.07, the self-aminoacylation (biotinyl-Phe-oxazolone) was 1.16 and the self-aminoacylation (biotinyl-Val-oxazolone) was 0.993.
In the case of “CAUCUUCAAACAAUCGGUCUG [Fam1A.1 aminoacylation ribozyme variant]”, the self-aminoacylation (biotinyl-Leu-oxazolone) is reported as 1.96, the self-aminoacylation (biotinyl-Met-oxazolone) is reported as 1.48 and the self-aminoacylation (biotinyl-Trp-oxazolone) is reported as 24.5. It also gave a self-aminoacylation (biotinyl-Ile-oxazolone) of 1.14, a self-aminoacylation (biotinyl-Phe-oxazolone) of 47 and a self-aminoacylation (biotinyl-Val-oxazolone) of 1.23.
“AAGUUUGCUAAUAAUAGCAAG [Fam3.1 aminoacylation ribozyme variant]” was tested, and the self-aminoacylation (biotinyl-Leu-oxazolone) was 1.14, the self-aminoacylation (biotinyl-Met-oxazolone) was 0.923 and the self-aminoacylation (biotinyl-Trp-oxazolone) was 0.784. It also gave a self-aminoacylation (biotinyl-Ile-oxazolone) of 1.14, a self-aminoacylation (biotinyl-Phe-oxazolone) of 1.65 and a self-aminoacylation (biotinyl-Val-oxazolone) of 0.929.
Work on “CCACAGUUCAAUCAAUCGGUC [Fam1B.1 aminoacylation ribozyme variant]” yielded a self-aminoacylation (biotinyl-Leu-oxazolone) of 0.881, a self-aminoacylation (biotinyl-Met-oxazolone) of 0.905 and a self-aminoacylation (biotinyl-Trp-oxazolone) of 2.08. It also gave a self-aminoacylation (biotinyl-Ile-oxazolone) of 0.806, a self-aminoacylation (biotinyl-Phe-oxazolone) of 2.95 and a self-aminoacylation (biotinyl-Val-oxazolone) of 0.96.
“CCAAACUUCAAGCAAUGGGUC [Fam1B.1 aminoacylation ribozyme variant]” gave a self-aminoacylation (biotinyl-Leu-oxazolone) of 0.883, a self-aminoacylation (biotinyl-Met-oxazolone) of 0.956 and a self-aminoacylation (biotinyl-Trp-oxazolone) of 0.699. For the same sequence, the self-aminoacylation (biotinyl-Ile-oxazolone) was 1.03, the self-aminoacylation (biotinyl-Phe-oxazolone) was 0.614 and the self-aminoacylation (biotinyl-Val-oxazolone) was 0.94.
“AUACUUCAAACAAACGGUCUG [Fam1A.1 aminoacylation ribozyme variant]” gave a self-aminoacylation (biotinyl-Leu-oxazolone) of 0.832, a self-aminoacylation (biotinyl-Met-oxazolone) of 0.852 and a self-aminoacylation (biotinyl-Trp-oxazolone) of 0.89. It also gave a self-aminoacylation (biotinyl-Ile-oxazolone) of 0.975, a self-aminoacylation (biotinyl-Phe-oxazolone) of 0.966 and a self-aminoacylation (biotinyl-Val-oxazolone) of 0.986.
Sequence “CUACUGCAAACAAUCGGUCAG [Fam1A.1 aminoacylation ribozyme variant]” has a self-aminoacylation (biotinyl-Leu-oxazolone) of 0.699, a self-aminoacylation (biotinyl-Met-oxazolone) of 0.727 and a self-aminoacylation (biotinyl-Trp-oxazolone) of 0.741. For the same sequence, the self-aminoacylation (biotinyl-Ile-oxazolone) was 0.788, the self-aminoacylation (biotinyl-Phe-oxazolone) was 0.763 and the self-aminoacylation (biotinyl-Val-oxazolone) was 0.748.
With “CUACGUCAAACAAUGGGUCUG [Fam1A.1 aminoacylation ribozyme variant]” the self-aminoacylation (biotinyl-Leu-oxazolone) was 1.62, the self-aminoacylation (biotinyl-Met-oxazolone) was 1.22 and the self-aminoacylation (biotinyl-Trp-oxazolone) was 1.18. The self-aminoacylation (biotinyl-Ile-oxazolone) was 1.38, the self-aminoacylation (biotinyl-Phe-oxazolone) was 2.25 and the self-aminoacylation (biotinyl-Val-oxazolone) was 1.35.
For “AUUACCCUGUUCAUCGAGUUA [Fam2.1 aminoacylation ribozyme variant]”, the self-aminoacylation (biotinyl-Leu-oxazolone) was 1.12, the self-aminoacylation (biotinyl-Met-oxazolone) was 1.13 and the self-aminoacylation (biotinyl-Trp-oxazolone) was 0.616. The self-aminoacylation (biotinyl-Ile-oxazolone) was 1.19, the self-aminoacylation (biotinyl-Phe-oxazolone) was 0.909 and the self-aminoacylation (biotinyl-Val-oxazolone) was 1.12.
With “CUACUGCAUACAAUCGGUCUG [Fam1A.1 aminoacylation ribozyme variant]” the self-aminoacylation (biotinyl-Leu-oxazolone) was 0.577, the self-aminoacylation (biotinyl-Met-oxazolone) was 0.612 and the self-aminoacylation (biotinyl-Trp-oxazolone) was 0.659. The self-aminoacylation (biotinyl-Ile-oxazolone) was 0.677, the self-aminoacylation (biotinyl-Phe-oxazolone) was 0.959 and the self-aminoacylation (biotinyl-Val-oxazolone) was 0.643.
With “CUCUUUCAAACAAUCGGUCUG [Fam1A.1 aminoacylation ribozyme variant]” the self-aminoacylation (biotinyl-Leu-oxazolone) was 1.21, the self-aminoacylation (biotinyl-Met-oxazolone) was 1.13 and the self-aminoacylation (biotinyl-Trp-oxazolone) was 9.95. For the same sequence, the self-aminoacylation (biotinyl-Ile-oxazolone) was 0.972, the self-aminoacylation (biotinyl-Phe-oxazolone) was 14.2 and the self-aminoacylation (biotinyl-Val-oxazolone) was 0.908.
With “AUUCACCUAGAUCAUCAGGUG [Fam2.2 aminoacylation ribozyme variant]” the self-aminoacylation (biotinyl-Leu-oxazolone) was 1.14, the self-aminoacylation (biotinyl-Met-oxazolone) was 1.06 and the self-aminoacylation (biotinyl-Trp-oxazolone) was 0.71. The self-aminoacylation (biotinyl-Ile-oxazolone) was 0.933, the self-aminoacylation (biotinyl-Phe-oxazolone) was 0.666 and the self-aminoacylation (biotinyl-Val-oxazolone) was 1.05.
Work on “CUACUUCAAGCAAACGGUCUG [Fam1A.1 aminoacylation ribozyme variant]” yielded a self-aminoacylation (biotinyl-Leu-oxazolone) of 0.765, a self-aminoacylation (biotinyl-Met-oxazolone) of 0.91 and a self-aminoacylation (biotinyl-Trp-oxazolone) of 0.694. The self-aminoacylation (biotinyl-Ile-oxazolone) was 0.82, the self-aminoacylation (biotinyl-Phe-oxazolone) was 0.755 and the self-aminoacylation (biotinyl-Val-oxazolone) was 0.801.
“UUACUUCAAACAAUCGAUCUG [Fam1A.1 aminoacylation ribozyme variant]” gave a self-aminoacylation (biotinyl-Leu-oxazolone) of 0.824, a self-aminoacylation (biotinyl-Met-oxazolone) of 0.711 and a self-aminoacylation (biotinyl-Trp-oxazolone) of 0.866. It also gave a self-aminoacylation (biotinyl-Ile-oxazolone) of 0.852, a self-aminoacylation (biotinyl-Phe-oxazolone) of 1.8 and a self-aminoacylation (biotinyl-Val-oxazolone) of 0.719.
“CUACUUCCAACAAUCGGUCUC [Fam1A.1 aminoacylation ribozyme variant]” showed a self-aminoacylation (biotinyl-Leu-oxazolone) of 0.743, a self-aminoacylation (biotinyl-Met-oxazolone) of 0.803 and a self-aminoacylation (biotinyl-Trp-oxazolone) of 0.655. It also gave a self-aminoacylation (biotinyl-Ile-oxazolone) of 0.684, a self-aminoacylation (biotinyl-Phe-oxazolone) of 0.933 and a self-aminoacylation (biotinyl-Val-oxazolone) of 0.665.
With “CCACAUUUCCAGCAAUCGGUC [Fam1B.1 aminoacylation ribozyme variant]” the self-aminoacylation (biotinyl-Leu-oxazolone) was 2.15, the self-aminoacylation (biotinyl-Met-oxazolone) was 1.64 and the self-aminoacylation (biotinyl-Trp-oxazolone) was 1.23. It also gave a self-aminoacylation (biotinyl-Ile-oxazolone) of 2.12, a self-aminoacylation (biotinyl-Phe-oxazolone) of 1.26 and a self-aminoacylation (biotinyl-Val-oxazolone) of 2.04.
Sequence “AAGUUUGCUAAAAGGCGCAAG [Fam3.1 aminoacylation ribozyme variant]” has a self-aminoacylation (biotinyl-Leu-oxazolone) of 0.673, a self-aminoacylation (biotinyl-Met-oxazolone) of 0.521 and a self-aminoacylation (biotinyl-Trp-oxazolone) of 0.576. It also gave a self-aminoacylation (biotinyl-Ile-oxazolone) of 0.664, a self-aminoacylation (biotinyl-Phe-oxazolone) of 0.904 and a self-aminoacylation (biotinyl-Val-oxazolone) of 0.563.
For “CUACUUCAAACGAUAGGUCUG [Fam1A.1 aminoacylation ribozyme variant]”, the self-aminoacylation (biotinyl-Leu-oxazolone) was 0.537, the self-aminoacylation (biotinyl-Met-oxazolone) was 0.807 and the self-aminoacylation (biotinyl-Trp-oxazolone) was 0.623. It also gave a self-aminoacylation (biotinyl-Ile-oxazolone) of 0.593, a self-aminoacylation (biotinyl-Phe-oxazolone) of 0.577 and a self-aminoacylation (biotinyl-Val-oxazolone) of 0.685.
